{"source": "patent US20180333399A1", "about": "“METHOD OF IMPROVING LIVER FUNCTION” (NAIA METABOLIC, INC., priority 2012, published 2018)", "experiment": "Body weight of db/db mice, 9 days oral gavage", "type": "in vivo", "data": [{"compound": "CC(=O)/N=c1/sc(S(N)(=O)=O)nn1C", "note": "[methazolamide]", "values": [{"measurement": "Change in Body Weight, Day 9-Day 0", "setting": "50 mg/kg/day oral gavage for 9 days, p < 0.05 vs vehicle", "result": "-2.6 ± 1.4", "unit": "g"}, {"measurement": "Body Weight, Day 9", "setting": "Day 9, 50 mg/kg/day oral gavage", "result": "39.0 ± 4.4", "unit": "g"}, {"measurement": "change in body weight over the 9 day dosing period (in words)", "setting": "db/db mice, 50 mg/kg/day, vehicle-treated animals gained weight", "result": "lost weight"}]}]}
